From the supplement of paper PMC10849652
The list shows a part of the results.

Amino acid sequences for entries named in this document (tags omitted). A change or cut given only in a name is not applied to a line headed by its entry.
UniProt Q9H9Y4: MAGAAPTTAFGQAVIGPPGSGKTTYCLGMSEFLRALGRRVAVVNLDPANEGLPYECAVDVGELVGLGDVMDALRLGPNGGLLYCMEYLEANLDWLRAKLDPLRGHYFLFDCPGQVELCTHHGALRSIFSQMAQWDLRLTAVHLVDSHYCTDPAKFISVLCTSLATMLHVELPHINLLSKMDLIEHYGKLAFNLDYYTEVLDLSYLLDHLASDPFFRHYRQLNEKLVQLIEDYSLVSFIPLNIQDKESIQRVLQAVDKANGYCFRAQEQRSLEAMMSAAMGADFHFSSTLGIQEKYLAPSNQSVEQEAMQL
UniProt Q9BVP2: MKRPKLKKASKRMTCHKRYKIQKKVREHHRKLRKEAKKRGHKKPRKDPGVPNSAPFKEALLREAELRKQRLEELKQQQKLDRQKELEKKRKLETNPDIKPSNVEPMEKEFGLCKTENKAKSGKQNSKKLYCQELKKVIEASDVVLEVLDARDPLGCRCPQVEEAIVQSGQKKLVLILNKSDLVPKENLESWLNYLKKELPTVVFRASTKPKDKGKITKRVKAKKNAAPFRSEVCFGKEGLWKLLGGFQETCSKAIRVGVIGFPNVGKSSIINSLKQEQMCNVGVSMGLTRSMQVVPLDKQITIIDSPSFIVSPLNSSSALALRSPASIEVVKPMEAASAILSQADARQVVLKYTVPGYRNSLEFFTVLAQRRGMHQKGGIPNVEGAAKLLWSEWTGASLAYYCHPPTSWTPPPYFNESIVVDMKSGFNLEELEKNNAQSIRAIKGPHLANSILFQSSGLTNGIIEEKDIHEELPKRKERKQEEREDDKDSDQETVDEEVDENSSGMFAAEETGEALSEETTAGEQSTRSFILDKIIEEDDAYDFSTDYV
UniProt Q86VQ1: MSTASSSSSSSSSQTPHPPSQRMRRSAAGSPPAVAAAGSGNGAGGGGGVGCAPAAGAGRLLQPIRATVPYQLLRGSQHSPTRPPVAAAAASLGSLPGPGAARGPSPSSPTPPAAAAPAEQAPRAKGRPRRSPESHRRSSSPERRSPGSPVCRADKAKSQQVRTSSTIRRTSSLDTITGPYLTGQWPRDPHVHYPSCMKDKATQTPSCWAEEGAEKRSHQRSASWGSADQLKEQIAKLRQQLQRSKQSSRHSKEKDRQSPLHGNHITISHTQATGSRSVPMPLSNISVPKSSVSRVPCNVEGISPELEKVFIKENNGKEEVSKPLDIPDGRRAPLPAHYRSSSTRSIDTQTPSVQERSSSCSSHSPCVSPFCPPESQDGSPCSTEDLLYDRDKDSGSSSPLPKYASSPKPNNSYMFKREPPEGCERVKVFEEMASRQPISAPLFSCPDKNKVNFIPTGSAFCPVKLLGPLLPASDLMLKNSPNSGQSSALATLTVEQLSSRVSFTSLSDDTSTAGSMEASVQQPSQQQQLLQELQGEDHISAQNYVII
UniProt Q7Z2K8: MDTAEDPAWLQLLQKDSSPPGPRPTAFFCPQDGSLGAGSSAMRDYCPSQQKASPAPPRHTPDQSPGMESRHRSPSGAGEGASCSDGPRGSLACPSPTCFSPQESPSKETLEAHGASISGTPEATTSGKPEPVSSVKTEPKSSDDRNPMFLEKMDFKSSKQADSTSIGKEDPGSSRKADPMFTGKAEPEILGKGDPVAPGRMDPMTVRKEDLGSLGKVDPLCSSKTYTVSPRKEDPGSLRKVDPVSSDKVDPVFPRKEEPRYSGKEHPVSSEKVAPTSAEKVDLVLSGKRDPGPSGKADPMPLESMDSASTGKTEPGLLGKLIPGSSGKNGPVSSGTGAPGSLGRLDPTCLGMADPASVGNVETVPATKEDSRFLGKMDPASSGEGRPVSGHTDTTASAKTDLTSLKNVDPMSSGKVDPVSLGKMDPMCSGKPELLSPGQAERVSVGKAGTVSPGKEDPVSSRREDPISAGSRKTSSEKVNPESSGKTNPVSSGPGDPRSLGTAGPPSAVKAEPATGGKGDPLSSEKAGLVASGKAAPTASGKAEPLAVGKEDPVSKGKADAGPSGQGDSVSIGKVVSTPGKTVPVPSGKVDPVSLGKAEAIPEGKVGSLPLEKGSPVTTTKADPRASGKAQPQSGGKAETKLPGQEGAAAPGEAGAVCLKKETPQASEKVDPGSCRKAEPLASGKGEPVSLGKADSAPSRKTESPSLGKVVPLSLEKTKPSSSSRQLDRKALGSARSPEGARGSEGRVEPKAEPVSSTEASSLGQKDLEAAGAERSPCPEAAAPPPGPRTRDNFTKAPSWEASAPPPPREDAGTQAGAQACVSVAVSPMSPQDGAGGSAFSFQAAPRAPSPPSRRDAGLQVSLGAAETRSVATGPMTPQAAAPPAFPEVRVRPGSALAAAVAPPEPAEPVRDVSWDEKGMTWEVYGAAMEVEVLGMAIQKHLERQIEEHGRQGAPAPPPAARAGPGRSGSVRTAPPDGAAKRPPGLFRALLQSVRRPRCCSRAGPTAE
UniProt P62873, whole entry, looked up: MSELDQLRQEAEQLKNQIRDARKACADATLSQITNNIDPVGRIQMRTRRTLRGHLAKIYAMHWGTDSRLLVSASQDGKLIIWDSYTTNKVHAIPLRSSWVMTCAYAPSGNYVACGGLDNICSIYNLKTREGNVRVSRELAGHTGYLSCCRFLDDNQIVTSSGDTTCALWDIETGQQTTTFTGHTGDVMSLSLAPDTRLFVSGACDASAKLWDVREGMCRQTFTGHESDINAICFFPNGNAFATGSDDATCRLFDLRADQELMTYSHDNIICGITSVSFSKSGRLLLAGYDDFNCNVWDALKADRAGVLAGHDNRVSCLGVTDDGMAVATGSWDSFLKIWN
UniProt Q9Y3E0: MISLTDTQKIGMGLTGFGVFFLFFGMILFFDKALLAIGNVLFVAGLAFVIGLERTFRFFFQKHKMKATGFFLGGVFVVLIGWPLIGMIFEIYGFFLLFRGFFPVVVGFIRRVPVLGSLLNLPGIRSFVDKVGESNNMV
UniProt P36969, whole entry, looked up: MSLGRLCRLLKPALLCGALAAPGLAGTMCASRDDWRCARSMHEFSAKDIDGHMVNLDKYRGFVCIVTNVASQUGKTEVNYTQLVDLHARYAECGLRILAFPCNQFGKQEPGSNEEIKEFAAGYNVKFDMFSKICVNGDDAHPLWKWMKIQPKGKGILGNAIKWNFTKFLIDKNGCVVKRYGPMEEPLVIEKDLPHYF
UniProt O00461: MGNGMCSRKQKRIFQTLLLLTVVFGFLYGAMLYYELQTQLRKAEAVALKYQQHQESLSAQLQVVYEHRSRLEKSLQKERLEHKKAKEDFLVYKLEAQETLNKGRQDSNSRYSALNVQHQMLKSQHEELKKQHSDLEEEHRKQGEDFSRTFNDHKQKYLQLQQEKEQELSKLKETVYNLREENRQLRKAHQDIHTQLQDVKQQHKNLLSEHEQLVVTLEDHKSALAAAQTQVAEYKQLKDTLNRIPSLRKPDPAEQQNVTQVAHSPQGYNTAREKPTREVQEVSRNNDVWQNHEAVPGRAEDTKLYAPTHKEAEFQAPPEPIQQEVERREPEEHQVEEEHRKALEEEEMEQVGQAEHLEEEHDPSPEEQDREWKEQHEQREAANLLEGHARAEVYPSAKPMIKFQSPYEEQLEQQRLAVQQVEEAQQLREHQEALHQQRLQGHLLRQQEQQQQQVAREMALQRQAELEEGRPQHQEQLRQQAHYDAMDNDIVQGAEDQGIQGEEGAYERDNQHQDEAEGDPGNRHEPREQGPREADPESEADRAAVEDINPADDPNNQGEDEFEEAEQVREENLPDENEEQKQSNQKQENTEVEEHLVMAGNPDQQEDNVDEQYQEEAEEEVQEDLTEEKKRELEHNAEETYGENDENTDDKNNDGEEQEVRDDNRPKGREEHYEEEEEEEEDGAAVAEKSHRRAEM
UniProt Q9NQX3: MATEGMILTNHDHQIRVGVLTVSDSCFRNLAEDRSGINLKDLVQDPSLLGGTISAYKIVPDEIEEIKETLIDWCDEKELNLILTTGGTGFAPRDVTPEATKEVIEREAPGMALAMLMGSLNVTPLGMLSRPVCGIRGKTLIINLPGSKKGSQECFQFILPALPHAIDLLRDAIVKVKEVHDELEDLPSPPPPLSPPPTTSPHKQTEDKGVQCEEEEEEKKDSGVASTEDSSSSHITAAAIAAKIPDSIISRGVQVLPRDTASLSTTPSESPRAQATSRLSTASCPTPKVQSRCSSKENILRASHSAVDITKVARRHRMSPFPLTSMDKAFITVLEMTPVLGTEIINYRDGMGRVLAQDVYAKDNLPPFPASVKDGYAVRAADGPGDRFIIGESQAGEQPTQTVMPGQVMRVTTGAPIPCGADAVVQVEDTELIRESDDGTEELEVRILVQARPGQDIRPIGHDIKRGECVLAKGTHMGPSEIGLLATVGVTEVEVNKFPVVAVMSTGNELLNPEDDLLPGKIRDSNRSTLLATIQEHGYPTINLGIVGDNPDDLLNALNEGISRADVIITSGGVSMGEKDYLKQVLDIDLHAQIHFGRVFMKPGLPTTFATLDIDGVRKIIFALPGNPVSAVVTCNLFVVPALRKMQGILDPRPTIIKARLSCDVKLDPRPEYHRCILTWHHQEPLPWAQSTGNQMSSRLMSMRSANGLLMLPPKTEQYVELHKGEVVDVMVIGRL
UniProt Q9Y692: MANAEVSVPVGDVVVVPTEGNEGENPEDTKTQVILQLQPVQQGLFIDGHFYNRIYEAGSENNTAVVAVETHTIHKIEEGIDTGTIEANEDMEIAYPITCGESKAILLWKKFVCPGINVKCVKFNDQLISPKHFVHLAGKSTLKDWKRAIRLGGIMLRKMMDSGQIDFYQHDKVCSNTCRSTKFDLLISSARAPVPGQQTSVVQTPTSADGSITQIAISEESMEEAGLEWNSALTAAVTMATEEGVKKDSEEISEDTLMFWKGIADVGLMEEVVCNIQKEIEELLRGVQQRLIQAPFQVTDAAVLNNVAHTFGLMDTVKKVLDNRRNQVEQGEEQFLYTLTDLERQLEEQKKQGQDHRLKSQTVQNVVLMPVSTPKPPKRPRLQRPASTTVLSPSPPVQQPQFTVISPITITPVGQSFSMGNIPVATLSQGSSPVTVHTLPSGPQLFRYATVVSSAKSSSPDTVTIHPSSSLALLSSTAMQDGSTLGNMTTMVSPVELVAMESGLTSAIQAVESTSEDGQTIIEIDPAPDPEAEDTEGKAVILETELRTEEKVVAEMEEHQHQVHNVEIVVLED
UniProt Q9UKJ3: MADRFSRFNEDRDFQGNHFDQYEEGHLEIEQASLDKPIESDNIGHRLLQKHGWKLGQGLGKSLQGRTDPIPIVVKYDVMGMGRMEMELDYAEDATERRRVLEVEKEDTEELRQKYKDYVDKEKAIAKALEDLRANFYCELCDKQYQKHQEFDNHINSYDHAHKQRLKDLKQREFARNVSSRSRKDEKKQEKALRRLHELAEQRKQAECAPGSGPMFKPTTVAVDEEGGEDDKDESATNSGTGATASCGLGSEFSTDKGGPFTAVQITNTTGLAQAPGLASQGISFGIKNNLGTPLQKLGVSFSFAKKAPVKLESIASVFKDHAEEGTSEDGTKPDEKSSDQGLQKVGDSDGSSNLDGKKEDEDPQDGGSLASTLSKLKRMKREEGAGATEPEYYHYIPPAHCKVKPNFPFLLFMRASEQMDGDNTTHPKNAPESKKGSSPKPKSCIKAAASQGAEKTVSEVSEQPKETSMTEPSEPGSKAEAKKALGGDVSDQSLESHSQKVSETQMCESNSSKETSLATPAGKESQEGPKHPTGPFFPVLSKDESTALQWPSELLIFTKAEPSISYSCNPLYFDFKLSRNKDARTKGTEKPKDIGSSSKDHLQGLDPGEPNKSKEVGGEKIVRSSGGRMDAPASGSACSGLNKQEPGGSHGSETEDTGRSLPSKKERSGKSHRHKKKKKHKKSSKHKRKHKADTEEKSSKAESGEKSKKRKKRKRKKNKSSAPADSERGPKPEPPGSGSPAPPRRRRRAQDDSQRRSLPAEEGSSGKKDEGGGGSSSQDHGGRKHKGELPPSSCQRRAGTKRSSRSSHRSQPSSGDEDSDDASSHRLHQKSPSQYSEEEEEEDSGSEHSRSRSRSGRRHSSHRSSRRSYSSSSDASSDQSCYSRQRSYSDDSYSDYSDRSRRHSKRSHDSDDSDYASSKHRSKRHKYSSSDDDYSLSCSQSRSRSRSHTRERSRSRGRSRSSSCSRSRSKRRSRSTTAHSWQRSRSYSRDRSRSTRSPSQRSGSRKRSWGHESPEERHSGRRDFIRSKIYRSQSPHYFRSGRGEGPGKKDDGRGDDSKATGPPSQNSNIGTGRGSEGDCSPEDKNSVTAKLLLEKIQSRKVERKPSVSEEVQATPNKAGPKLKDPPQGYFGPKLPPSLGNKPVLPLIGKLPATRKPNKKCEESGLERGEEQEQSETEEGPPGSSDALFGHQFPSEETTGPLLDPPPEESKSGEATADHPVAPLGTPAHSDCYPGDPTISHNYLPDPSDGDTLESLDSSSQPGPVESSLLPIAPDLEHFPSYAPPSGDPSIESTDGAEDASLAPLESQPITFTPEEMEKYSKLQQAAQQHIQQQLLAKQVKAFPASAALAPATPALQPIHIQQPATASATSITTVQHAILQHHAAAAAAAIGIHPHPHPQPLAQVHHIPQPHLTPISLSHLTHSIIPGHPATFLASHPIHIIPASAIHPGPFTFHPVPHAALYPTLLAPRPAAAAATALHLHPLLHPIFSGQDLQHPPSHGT

compound: CC1=C2C(=CC=C1)N=C(N(C2=O)C3=CC=CC=C3C)CN4C=NC5=C(N=CN=C54)N; experiment: log2 fold change, soluble protein after heating vs DMSO (PISA); higher = thermal stabilisation; K562 cells, 10 uM, 30 min; active = over 0.2 and 3.5 SD of the protein, either way, in both replicates (recomputed)
Procedure, shortened: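 Soluble protein was defined as the supernatant after 21,000xg for 90 min. It came from K562 cells at 2×10^6 cells/mL given 10 μM compound for 30 min, heated in aliquots for 3 min across 48°C-58°C, pooled, and extracted in PBS with 0.5% NP-40 at 4°C, and was quantified by TMTpro 16plex LC-MS/MS with equalised channel sums. Thermal stability against control samples, from duplicates, is reported as log2 fold change.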

Target | log2 fold change
GIGYF2 (UniProt Q6Y7W6) | inactive: 0.057
GPALPP1 (UniProt Q8IXQ4) | inactive: 0.074
GPN2 (UniProt Q9H9Y4) | inactive: 0.073
GNL3 (UniProt Q9BVP2) | inactive: 0.164
GLCCI1 (UniProt Q86VQ1) | inactive: 0.137
GPRIN1 (UniProt Q7Z2K8) | inactive: 0.028
GNB1 (UniProt P62873) | inactive: -0.009
GOLT1B (UniProt Q9Y3E0) | inactive: 0.044
GLUD1 (UniProt P00367) | inactive: -0.004
GPX4 (UniProt P36969) | inactive: 0.017
GOLIM4 (UniProt O00461) | inactive: 0.03
GRB2 (UniProt P62993) | inactive: 0.019
GPHN isoform 2 (UniProt Q9NQX3) | inactive: 0.02
GMPPB isoform 2 (UniProt Q9Y5P6) | inactive: -0.038
GOT2 (UniProt P00505) | inactive: -0.041
GMPR (UniProt P36959) | inactive: -0.022
GMEB1 (UniProt Q9Y692) | inactive: -0.007
GOSR1 (UniProt O95249) | inactive: -0.022
GPATCH8 (UniProt Q9UKJ3) | inactive: 0.015
GPAT3 (UniProt Q53EU6) | inactive: 0.036
GOLIM4 (UniProt F8W785) | inactive: -0.036
GNAI3 (UniProt P08754) | inactive: 0.011
GLYR1 (UniProt Q49A26) | inactive: -0.016

Two neighbouring entries from above, quoted:
Target | log2 fold change
GMPR (UniProt P36959) | inactive: -0.022
GMEB1 (UniProt Q9Y692) | inactive: -0.007
